Measured values taken from the supplement of paper PMC10849652.
Some of the results follow.

By UniProt entry, the sequences of proteins in these tests, tags left out. Where a name states a change or a piece, a line headed by the entry shows the natural chain unless it says otherwise.
UniProt Q8IWS0: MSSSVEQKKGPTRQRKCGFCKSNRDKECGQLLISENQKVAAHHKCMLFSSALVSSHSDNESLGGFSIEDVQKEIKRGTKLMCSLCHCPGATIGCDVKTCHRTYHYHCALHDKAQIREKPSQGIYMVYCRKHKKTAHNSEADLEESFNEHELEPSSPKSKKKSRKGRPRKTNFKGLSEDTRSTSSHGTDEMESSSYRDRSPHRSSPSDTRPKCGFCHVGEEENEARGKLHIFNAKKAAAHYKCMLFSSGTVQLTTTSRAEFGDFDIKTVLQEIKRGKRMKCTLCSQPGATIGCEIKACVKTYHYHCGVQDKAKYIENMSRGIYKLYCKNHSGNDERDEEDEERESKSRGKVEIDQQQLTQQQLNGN
UniProt P46019: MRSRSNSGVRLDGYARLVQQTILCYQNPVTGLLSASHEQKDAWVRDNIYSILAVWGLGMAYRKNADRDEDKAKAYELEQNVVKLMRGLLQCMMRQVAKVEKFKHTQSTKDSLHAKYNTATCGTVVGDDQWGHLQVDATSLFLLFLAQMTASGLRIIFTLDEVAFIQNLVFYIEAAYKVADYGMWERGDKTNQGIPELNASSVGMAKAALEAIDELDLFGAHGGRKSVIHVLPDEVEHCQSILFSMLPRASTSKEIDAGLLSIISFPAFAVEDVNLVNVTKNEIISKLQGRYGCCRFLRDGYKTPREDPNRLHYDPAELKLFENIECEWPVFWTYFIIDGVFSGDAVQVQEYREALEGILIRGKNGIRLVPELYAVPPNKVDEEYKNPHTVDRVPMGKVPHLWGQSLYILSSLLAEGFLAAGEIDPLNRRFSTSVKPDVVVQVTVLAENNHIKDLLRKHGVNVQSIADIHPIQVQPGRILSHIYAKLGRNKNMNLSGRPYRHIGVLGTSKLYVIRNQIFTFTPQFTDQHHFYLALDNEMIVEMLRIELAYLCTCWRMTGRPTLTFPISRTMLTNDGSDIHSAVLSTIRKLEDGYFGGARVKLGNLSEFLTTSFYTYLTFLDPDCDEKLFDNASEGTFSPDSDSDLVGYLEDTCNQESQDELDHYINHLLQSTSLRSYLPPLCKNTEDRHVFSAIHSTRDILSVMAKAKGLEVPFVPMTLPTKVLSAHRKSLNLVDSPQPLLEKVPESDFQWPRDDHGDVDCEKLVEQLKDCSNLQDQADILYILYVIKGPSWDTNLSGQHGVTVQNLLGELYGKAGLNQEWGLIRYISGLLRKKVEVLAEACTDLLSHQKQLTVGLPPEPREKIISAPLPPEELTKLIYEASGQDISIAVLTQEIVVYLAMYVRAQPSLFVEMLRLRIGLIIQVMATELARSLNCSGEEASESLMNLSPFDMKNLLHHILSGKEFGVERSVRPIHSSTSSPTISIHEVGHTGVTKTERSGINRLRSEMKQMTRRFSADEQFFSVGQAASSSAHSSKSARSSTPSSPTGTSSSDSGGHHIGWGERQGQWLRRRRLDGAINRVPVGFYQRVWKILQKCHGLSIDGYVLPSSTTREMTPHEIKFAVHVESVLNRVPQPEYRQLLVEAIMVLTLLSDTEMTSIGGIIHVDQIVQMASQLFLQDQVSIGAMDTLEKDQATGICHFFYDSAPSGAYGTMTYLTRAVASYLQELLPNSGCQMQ
UniProt Q9GZP4: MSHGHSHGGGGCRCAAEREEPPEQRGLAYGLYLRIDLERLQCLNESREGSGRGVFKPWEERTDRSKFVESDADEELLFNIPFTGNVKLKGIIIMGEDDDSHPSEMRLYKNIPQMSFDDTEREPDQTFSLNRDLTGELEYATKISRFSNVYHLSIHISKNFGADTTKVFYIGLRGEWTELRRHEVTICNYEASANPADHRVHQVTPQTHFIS
UniProt O15212, whole entry, looked up: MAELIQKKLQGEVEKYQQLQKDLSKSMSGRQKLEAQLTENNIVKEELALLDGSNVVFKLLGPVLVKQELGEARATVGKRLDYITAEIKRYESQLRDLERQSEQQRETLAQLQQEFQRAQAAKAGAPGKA
UniProt Q16877: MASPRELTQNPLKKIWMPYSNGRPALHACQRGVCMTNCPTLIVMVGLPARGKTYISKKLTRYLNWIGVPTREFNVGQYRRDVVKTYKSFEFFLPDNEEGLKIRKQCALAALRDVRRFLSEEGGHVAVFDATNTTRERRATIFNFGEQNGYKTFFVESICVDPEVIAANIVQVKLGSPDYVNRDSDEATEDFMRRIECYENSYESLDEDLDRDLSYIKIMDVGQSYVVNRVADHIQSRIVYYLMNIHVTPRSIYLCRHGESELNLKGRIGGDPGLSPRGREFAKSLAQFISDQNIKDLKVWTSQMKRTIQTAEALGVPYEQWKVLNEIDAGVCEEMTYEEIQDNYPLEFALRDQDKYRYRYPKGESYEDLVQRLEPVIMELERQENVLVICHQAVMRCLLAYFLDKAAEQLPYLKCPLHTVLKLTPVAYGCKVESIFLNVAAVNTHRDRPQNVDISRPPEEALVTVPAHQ
UniProt Q96G03: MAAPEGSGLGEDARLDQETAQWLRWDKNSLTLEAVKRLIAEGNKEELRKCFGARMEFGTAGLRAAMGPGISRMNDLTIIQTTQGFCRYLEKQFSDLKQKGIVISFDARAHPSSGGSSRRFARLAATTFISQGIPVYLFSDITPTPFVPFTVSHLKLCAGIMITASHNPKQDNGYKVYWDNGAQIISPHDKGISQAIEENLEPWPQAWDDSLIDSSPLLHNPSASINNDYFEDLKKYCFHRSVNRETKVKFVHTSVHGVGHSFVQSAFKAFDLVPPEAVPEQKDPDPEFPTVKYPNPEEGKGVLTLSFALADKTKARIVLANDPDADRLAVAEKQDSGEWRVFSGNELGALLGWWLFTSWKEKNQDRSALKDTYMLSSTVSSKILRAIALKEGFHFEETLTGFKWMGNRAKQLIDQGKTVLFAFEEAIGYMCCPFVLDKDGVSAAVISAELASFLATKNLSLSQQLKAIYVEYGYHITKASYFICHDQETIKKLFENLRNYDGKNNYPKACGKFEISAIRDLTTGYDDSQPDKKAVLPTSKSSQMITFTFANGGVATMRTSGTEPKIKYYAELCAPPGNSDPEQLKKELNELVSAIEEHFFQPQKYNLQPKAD
UniProt Q9Y2I7: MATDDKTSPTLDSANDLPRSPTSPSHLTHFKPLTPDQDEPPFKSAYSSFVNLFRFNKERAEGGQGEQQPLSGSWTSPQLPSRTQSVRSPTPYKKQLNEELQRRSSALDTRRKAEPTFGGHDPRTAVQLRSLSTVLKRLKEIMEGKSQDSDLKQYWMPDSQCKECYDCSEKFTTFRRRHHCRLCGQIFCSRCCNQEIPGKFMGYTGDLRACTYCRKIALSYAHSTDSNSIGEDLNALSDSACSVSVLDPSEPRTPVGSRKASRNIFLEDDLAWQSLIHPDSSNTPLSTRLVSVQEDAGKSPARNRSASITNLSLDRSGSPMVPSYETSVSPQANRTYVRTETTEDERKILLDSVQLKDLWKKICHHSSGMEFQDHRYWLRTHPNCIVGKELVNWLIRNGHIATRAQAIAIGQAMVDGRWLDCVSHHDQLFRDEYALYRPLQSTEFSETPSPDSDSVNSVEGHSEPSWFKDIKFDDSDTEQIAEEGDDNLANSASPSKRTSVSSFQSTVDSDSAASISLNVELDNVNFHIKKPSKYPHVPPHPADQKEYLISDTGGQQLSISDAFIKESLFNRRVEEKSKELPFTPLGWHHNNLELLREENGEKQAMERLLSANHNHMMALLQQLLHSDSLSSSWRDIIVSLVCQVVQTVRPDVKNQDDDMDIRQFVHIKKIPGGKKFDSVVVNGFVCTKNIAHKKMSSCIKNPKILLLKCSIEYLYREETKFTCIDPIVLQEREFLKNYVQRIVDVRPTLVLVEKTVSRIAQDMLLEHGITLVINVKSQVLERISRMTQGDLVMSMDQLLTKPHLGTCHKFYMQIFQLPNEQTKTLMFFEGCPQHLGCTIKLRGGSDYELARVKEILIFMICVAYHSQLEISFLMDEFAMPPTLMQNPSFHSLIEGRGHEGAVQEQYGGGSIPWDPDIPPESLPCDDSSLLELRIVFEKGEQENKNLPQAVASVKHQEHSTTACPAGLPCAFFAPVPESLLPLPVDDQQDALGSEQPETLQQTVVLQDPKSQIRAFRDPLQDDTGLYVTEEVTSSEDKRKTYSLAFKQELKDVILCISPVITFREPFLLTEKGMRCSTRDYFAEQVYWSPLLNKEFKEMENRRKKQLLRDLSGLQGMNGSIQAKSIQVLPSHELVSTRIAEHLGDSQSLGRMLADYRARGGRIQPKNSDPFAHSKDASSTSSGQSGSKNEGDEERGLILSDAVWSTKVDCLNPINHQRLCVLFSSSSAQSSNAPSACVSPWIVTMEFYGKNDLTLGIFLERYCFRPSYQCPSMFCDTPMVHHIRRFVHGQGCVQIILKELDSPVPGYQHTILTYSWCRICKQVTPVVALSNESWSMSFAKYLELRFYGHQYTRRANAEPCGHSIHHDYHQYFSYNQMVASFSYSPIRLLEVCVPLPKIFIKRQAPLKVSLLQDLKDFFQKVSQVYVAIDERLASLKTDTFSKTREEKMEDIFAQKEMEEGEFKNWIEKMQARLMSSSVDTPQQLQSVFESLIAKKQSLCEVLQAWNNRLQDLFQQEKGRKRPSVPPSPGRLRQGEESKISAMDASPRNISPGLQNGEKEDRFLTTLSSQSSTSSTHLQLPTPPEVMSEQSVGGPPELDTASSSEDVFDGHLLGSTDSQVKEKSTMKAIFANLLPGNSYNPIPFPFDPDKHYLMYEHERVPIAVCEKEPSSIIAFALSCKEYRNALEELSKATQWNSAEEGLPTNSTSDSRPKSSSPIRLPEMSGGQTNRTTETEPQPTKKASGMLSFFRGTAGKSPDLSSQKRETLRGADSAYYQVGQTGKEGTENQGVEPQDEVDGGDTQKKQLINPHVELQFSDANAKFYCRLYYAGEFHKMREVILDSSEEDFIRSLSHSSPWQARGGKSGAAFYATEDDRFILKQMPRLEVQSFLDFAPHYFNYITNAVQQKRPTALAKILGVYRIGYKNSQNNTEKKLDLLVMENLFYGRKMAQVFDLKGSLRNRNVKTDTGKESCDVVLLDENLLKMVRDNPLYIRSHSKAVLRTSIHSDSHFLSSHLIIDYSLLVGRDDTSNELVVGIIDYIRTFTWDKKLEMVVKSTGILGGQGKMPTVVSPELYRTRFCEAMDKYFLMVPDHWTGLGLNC
UniProt P00558: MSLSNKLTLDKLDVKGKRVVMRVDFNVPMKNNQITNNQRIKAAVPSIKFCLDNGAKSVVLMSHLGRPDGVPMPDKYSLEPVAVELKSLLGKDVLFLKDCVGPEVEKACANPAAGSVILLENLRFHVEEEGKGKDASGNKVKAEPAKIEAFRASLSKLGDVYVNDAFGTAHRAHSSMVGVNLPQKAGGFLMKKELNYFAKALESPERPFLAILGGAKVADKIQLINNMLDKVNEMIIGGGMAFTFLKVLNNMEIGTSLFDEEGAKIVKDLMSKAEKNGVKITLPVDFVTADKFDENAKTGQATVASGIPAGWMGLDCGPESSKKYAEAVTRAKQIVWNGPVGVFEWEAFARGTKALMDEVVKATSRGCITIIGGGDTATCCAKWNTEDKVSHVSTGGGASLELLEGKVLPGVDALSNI
UniProt P40855: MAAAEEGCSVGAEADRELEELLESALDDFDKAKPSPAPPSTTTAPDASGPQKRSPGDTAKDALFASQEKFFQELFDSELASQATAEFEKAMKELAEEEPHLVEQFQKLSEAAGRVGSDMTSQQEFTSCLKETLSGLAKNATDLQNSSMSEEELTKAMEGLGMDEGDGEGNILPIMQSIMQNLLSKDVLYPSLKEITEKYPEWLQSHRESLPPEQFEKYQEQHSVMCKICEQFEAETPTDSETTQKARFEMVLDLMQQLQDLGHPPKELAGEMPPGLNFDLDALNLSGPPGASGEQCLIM
UniProt P51178: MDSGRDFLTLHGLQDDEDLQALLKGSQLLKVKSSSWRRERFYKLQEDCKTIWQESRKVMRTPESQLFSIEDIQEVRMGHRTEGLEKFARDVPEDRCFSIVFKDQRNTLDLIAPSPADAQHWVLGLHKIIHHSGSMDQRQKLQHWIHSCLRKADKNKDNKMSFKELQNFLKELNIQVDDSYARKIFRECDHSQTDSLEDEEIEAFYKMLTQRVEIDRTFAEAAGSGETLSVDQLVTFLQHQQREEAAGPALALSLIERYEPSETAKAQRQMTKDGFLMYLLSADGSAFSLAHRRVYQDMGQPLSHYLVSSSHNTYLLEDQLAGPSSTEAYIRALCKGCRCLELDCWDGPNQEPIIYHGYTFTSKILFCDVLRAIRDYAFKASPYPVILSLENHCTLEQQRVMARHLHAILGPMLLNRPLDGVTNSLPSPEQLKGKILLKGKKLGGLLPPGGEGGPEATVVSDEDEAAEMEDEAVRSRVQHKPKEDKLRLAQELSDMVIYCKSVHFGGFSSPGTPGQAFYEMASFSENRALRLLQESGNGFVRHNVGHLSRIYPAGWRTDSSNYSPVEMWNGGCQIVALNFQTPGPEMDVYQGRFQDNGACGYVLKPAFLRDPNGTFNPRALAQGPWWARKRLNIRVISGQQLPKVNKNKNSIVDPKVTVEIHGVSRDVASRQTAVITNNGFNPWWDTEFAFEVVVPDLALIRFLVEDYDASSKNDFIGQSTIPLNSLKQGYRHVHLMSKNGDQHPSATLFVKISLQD

Experiments:
Test in all cases: log2 fold change, soluble protein after heating vs DMSO (PISA); higher = thermal stabilisation; K562 cells, 10 uM, 30 min; active = over 0.2 and 3.5 SD of the protein, either way, in both replicates (recomputed)
[1] = compound: COC1=CC=C(C=C1)CN2C=CC3=C2C=C(C=C3)C(=O)NO
Procedure, shortened: (§1)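 For each measurement, 10 μM compound was applied for 30 min to K562 cells at 2×10^6 cells/mL. Aliquots were heated for 3 min across 48°C-58°C, pooled, and extracted in PBS with 0.5% NP-40 at 4°C; the supernatant after 21,000xg for 90 min was soluble protein. This was quantified by TMTpro 16plex LC-MS/MS with channel sums equalised, and thermal stability was reported relative to control samples from duplicates, on a log2 fold-change scale.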

filanesib = compound: CON(C)C(=O)N1N=C(c2cc(F)ccc2F)S[C@@]1(CCCN)c1ccccc1 [filanesib]
Procedure, shortened: as §1

zotarolimus = compound: CO[C@H]1C[C@@H]2CC[C@@H](C)[C@@](O)(O2)C(=O)C(=O)N2CCCC[C@H]2C(=O)O[C@H]([C@H](C)C[C@@H]2CC[C@H](n3cnnn3)[C@H](OC)C2)CC(=O)[C@H](C)/C=C(\C)[C@@H](O)[C@@H](OC)C(=O)[C@H](C)C[C@H](C)/C=C/C=C/C=C/1C [zotarolimus]
Procedure, shortened: as §1

idasanutlin = compound: COc1cc(C(=O)O)ccc1NC(=O)[C@@H]1N[C@@H](CC(C)(C)C)[C@](C#N)(c2ccc(Cl)cc2F)[C@H]1c1cccc(Cl)c1F [idasanutlin]
Procedure, shortened: as §1

alisertib = compound: COc1cc(Nc2ncc3c(n2)-c2ccc(Cl)cc2C(c2c(F)cccc2OC)=NC3)ccc1C(=O)O [alisertib]
Procedure, shortened: as §1

[2] = compound: COc1cc2nc(-c3cc(F)ccc3O)nc(N[C@@H]3CNC[C@H]3C(C)(C)O)c2cc1OC
Procedure, shortened: as §1

gefitinib = compound: COc1cc2ncnc(Nc3ccc(F)c(Cl)c3)c2cc1OCCCN1CCOCC1 [gefitinib]
Procedure, shortened: as §1

[3] = compound: COc1cccc2cc(-c3nc([C@H]4CC[C@H](C(=O)O)CC4)n4ncnc(N)c34)[nH]c12
Procedure, shortened: as §1

lapatinib = compound: CS(=O)(=O)CCNCc1ccc(-c2ccc3ncnc(Nc4ccc(OCc5cccc(F)c5)c(Cl)c4)c3c2)o1 [lapatinib]
Procedure, shortened: as §1

pictilisib = compound: CS(=O)(=O)N1CCN(Cc2cc3nc(-c4cccc5[nH]ncc45)nc(N4CCOCC4)c3s2)CC1 [pictilisib]
Procedure, shortened: as §1

Measured: log2 fold change

PHF6 (UniProt Q8IWS0)
inactive: [1] -0.1 | filanesib 0.269 | zotarolimus 0.041 | idasanutlin 0.18 | alisertib -0.031 | [2] -0.026 | gefitinib -0.049 | [3] -0.188 | lapatinib 0.12 | pictilisib -0.058

PHKA2 (UniProt P46019)
inactive: [1] -0.17 | filanesib -0.055 | zotarolimus 0.022 | idasanutlin -0.104 | alisertib -0.067 | [2] 0.064 | gefitinib -0.006 | [3] 0.025 | lapatinib -0.037 | pictilisib 0.078

PHB (UniProt P35232)
inactive: [1] -0.078 | filanesib -0.013 | zotarolimus -0.014 | idasanutlin 0.008 | alisertib -0.025 | [2] -0.038 | gefitinib 0.002 | [3] 0.056 | lapatinib -0.003 | pictilisib -0.021

PITHD1 (UniProt Q9GZP4)
inactive: [1] -0.096 | filanesib 0.001 | zotarolimus -0.055 | idasanutlin 0.105 | alisertib 0.071 | [2] 0.016 | gefitinib -0.031 | [3] 0.098 | lapatinib -0.085 | pictilisib 0.004

PIH1D1 (UniProt Q9NWS0)
inactive: [1] 0.185 | filanesib -0.017 | zotarolimus -0.019 | idasanutlin 0.013 | alisertib -0.056 | [2] -0.014 | gefitinib -0.032 | [3] -0.067 | lapatinib 0.097 | pictilisib -0.027

PFDN6 (UniProt O15212)
inactive: [1] -0.036 | filanesib -0.052 | zotarolimus -0.026 | idasanutlin 0.029 | alisertib -0.044 | [2] -0.018 | gefitinib -0.018 | [3] 0.014 | lapatinib 0.024 | pictilisib -0.012

PFKFB4 (UniProt Q16877)
inactive: [1] -0.029 | filanesib -0.014 | zotarolimus -0.004 | idasanutlin 0.008 | alisertib -0.014 | [2] 0.06 | gefitinib -0.026 | [3] 0.016 | lapatinib 0.004 | pictilisib -0.022

PGM2 (UniProt Q96G03)
inactive: [1] 0.024 | filanesib -0.034 | zotarolimus -0.044 | idasanutlin -0.02 | alisertib -0.019 | [2] 0.011 | gefitinib -0.008 | [3] 0.027 | lapatinib -0.009 | pictilisib 0.018

PIKFYVE (UniProt Q9Y2I7)
inactive: [1] 0.03 | filanesib -0.036 | zotarolimus -0.074 | idasanutlin -0.096 | alisertib 0.016 | [2] -0.037 | gefitinib -0.308 | [3] -0.044 | lapatinib -0.098 | pictilisib -0.047

PGK1 (UniProt P00558)
inactive: [1] -0.007 | filanesib -0.072 | zotarolimus 0.018 | idasanutlin -0.034 | alisertib -0.009 | [2] 0.079 | gefitinib 0.004 | [3] 0.02 | lapatinib -0.022 | pictilisib 0.065

PHAX (UniProt Q9H814)
inactive: [1] -0.01 | filanesib 0.045 | zotarolimus 0.004 | idasanutlin 0.018 | alisertib -0.057 | [2] -0.09 | gefitinib 0.007 | [3] 0.032 | lapatinib 0.039 | pictilisib 0.002

PEX19 (UniProt P40855)
inactive: [1] 0.044 | filanesib 0.041 | zotarolimus -0.006 | idasanutlin 0.02 | alisertib -0.027 | [2] -0.043 | gefitinib -0.009 | [3] 0.03 | lapatinib 0.034 | pictilisib -0.005

2 neighbouring entries from above, quoted:
PHAX (UniProt Q9H814)
inactive: [1] -0.01 | filanesib 0.045 | zotarolimus 0.004 | idasanutlin 0.018 | alisertib -0.057 | [2] -0.09 | gefitinib 0.007 | [3] 0.032 | lapatinib 0.039 | pictilisib 0.002

PEX19 (UniProt P40855)
inactive: [1] 0.044 | filanesib 0.041 | zotarolimus -0.006 | idasanutlin 0.02 | alisertib -0.027 | [2] -0.043 | gefitinib -0.009 | [3] 0.03 | lapatinib 0.034 | pictilisib -0.005

The list goes on.

PFKFB3 isoform 4 (UniProt Q16875)
inactive: [1] -0.009 | filanesib -0.005 | zotarolimus 0.093 | idasanutlin -0.028 | alisertib 0.001 | [2] 0.014 | gefitinib -0.033 | [3] 0.005 | lapatinib -0.039 | pictilisib -0.041

PHF3 (UniProt Q92576)
inactive: [1] -0.068 | filanesib 0.263 | zotarolimus -0.069 | idasanutlin 0.139 | alisertib -0.095 | [2] 0.163 | gefitinib -0.024 | [3] -0.001 | lapatinib 0.054 | pictilisib -0.071

PLCD1 isoform 2 (UniProt P51178)
inactive: [1] -0.013 | filanesib -0.081 | zotarolimus 0.085 | idasanutlin -0.072 | alisertib -0.053 | [2] -0.02 | gefitinib 0.029 | [3] 0.008 | lapatinib 0 | pictilisib -0.015
